Measurements: PMC5069480
No constants are given. Whether binding was seen depends on the method and setting. In cells and extracts the contact can be indirect. Sequences can lack the tags named with a protein.

target: T1, MYC-tagged full-length mouse MPP2 (MAGUK p55 subfamily member 2) (mouse) (UniProt Q9WV34); assay: co-IP; tagged recombinant proteins coexpressed in COS7 cells; lysis in 50 mM Tris pH 7.4, 100 mM NaCl, 1 mM EDTA, 1% Triton-X or 0.1% NP-40; IP with anti-MYC, anti-HA or anti-PSD-95 antibody (mouse IgG as control), protein-G-agarose, 4 °C; western blot
T1 sequence: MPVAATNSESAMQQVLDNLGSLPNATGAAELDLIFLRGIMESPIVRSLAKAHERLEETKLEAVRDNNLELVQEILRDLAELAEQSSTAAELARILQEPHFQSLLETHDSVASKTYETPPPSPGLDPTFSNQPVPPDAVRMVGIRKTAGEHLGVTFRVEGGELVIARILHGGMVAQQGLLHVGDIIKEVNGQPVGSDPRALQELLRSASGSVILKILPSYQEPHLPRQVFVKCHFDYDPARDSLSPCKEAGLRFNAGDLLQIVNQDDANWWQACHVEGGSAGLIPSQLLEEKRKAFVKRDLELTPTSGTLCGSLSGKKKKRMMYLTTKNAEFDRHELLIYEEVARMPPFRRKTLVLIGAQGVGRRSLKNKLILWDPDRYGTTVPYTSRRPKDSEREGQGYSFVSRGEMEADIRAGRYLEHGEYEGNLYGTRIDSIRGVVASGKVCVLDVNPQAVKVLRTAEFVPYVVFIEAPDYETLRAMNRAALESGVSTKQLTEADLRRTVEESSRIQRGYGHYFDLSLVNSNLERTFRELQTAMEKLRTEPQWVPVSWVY

Row | Substance | binding
1 | mCherry-tagged CKAMP44 C-terminus (10 C-terminal amino acids) (domain or fragment) | no binding
2 | mCherry-tagged GluA2 C-terminus (10 C-terminal amino acids) (domain or fragment) | no binding
3 | mCherry-tagged NGL-1 C-terminus (10 C-terminal amino acids) (domain or fragment) | no binding

Now from value to substance:

Row | binding | Substance
4 | no binding | mCherry-tagged NR2B C-terminus (10 C-terminal amino acids) (domain or fragment)
5 | no binding | mCherry-tagged Neuroligin-1 C-terminus (10 C-terminal amino acids) (domain or fragment)
6 | no binding | mCherry-tagged Stargazin/TARPγ2 C-terminus (10 C-terminal amino acids) (domain or fragment)
